± gives the standard deviation of the averaged measurements. This is one part of the list.
Compound: Nc1nc2c(ncn2[C@@H]2O[C@H](COP(=O)(O)OP(=O)(O)OP(=O)(O)O)[C@@H](O)[C@H]2O)c(=O)[nH]1 [guanosine triphosphate]
Experiment: NP40-soluble protein abundance relative to vehicle (solubility fold change) (ratio); higher = more soluble protein in presence of GTP
Outline: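 In three independent experiments, Jurkat crude lysate made by Dounce homogenisation was treated for 10 min at room temperature and then 3 min at 37 °C with eight concentrations ranging from 0.1 to 10 mM. It was then solubilised with 0.8% NP40 plus benzonase for 60 min at 4 °C and ultracentrifuged. The supernatant was TMT-labelled for LC-MS/MS, and each value is the fold change against the detergent-processed vehicle for the same replicate, using vsn-normalised intensities.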

Amino acid sequences for entries named in this document (tags omitted). A change or cut given only in a name is not applied to a line headed by its entry.
UniProt Q9HAH7: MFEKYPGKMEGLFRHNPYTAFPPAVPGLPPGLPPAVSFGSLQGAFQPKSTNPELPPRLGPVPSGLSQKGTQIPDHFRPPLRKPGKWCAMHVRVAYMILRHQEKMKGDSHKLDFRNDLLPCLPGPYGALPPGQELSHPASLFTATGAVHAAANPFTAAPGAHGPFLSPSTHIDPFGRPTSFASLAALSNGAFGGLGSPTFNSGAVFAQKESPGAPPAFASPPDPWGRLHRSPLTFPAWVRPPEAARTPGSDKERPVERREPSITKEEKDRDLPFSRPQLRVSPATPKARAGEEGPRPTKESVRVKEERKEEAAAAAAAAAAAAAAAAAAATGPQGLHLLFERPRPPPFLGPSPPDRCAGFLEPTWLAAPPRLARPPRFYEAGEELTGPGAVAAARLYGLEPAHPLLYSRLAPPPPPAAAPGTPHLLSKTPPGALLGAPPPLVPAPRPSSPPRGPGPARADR
UniProt Q86UW6: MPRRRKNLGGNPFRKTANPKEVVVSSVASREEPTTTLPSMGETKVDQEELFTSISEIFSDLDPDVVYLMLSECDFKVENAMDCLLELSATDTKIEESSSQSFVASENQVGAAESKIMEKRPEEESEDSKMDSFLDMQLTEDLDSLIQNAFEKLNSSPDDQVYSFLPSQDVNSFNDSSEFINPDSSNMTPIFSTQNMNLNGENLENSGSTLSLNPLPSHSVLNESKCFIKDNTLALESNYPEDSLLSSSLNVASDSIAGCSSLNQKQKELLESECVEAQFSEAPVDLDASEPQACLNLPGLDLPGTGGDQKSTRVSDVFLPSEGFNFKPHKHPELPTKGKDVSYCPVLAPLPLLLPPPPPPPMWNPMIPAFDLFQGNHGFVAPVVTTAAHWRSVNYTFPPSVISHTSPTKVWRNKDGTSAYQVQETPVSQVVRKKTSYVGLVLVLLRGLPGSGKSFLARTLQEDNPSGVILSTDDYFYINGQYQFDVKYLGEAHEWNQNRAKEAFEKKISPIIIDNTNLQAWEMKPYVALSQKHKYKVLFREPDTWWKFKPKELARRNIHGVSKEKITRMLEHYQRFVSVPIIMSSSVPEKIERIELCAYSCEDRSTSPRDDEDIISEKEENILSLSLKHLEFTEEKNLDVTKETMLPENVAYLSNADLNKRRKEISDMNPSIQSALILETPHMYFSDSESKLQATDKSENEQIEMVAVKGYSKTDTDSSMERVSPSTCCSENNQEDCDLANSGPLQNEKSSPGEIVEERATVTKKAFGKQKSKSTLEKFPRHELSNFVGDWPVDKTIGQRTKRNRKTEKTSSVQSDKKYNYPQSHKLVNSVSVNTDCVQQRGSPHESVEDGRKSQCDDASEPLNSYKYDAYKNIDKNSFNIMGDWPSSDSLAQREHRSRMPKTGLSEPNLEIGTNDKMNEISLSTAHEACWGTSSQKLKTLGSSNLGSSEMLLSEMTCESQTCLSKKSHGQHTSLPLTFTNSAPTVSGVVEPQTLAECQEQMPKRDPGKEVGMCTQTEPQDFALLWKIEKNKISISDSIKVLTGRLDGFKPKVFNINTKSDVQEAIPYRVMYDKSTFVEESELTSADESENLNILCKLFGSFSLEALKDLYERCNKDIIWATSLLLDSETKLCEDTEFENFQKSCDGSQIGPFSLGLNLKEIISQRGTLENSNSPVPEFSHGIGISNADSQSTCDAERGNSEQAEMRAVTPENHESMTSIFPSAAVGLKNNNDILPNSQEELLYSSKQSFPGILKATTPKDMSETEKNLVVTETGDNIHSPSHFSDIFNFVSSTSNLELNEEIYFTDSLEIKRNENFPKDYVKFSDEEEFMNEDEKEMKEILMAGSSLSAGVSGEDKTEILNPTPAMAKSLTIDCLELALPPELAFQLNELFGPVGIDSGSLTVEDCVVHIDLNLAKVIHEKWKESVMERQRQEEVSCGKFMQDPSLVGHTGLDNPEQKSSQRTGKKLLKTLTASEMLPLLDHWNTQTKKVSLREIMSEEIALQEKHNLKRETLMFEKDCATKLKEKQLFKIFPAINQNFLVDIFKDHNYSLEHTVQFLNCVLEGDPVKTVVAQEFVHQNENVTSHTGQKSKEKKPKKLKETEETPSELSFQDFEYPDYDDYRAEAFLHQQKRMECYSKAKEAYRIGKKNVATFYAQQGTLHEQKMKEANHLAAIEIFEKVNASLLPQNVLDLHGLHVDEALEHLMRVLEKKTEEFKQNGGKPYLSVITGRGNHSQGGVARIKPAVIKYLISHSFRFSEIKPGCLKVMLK
UniProt P51991: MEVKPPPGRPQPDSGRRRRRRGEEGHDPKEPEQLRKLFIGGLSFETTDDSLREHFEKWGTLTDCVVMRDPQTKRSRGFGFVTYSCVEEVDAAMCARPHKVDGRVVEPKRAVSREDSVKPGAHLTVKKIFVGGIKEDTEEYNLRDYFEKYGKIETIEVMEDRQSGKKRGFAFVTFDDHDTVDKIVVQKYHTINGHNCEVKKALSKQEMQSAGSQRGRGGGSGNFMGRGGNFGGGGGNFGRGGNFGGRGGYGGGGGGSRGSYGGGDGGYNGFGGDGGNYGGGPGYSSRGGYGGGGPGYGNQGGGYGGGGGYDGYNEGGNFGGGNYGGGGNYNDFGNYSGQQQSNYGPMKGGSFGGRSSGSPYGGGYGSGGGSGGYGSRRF
UniProt Q15390: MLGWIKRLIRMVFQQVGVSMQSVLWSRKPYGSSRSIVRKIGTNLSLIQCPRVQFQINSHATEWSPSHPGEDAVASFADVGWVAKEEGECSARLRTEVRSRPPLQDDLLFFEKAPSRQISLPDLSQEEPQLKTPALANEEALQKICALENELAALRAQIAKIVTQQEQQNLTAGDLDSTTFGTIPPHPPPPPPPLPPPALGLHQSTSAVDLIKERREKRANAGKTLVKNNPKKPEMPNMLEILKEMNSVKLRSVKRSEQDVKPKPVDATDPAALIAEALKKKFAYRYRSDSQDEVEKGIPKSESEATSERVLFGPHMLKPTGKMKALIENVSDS
UniProt Q2KHR2: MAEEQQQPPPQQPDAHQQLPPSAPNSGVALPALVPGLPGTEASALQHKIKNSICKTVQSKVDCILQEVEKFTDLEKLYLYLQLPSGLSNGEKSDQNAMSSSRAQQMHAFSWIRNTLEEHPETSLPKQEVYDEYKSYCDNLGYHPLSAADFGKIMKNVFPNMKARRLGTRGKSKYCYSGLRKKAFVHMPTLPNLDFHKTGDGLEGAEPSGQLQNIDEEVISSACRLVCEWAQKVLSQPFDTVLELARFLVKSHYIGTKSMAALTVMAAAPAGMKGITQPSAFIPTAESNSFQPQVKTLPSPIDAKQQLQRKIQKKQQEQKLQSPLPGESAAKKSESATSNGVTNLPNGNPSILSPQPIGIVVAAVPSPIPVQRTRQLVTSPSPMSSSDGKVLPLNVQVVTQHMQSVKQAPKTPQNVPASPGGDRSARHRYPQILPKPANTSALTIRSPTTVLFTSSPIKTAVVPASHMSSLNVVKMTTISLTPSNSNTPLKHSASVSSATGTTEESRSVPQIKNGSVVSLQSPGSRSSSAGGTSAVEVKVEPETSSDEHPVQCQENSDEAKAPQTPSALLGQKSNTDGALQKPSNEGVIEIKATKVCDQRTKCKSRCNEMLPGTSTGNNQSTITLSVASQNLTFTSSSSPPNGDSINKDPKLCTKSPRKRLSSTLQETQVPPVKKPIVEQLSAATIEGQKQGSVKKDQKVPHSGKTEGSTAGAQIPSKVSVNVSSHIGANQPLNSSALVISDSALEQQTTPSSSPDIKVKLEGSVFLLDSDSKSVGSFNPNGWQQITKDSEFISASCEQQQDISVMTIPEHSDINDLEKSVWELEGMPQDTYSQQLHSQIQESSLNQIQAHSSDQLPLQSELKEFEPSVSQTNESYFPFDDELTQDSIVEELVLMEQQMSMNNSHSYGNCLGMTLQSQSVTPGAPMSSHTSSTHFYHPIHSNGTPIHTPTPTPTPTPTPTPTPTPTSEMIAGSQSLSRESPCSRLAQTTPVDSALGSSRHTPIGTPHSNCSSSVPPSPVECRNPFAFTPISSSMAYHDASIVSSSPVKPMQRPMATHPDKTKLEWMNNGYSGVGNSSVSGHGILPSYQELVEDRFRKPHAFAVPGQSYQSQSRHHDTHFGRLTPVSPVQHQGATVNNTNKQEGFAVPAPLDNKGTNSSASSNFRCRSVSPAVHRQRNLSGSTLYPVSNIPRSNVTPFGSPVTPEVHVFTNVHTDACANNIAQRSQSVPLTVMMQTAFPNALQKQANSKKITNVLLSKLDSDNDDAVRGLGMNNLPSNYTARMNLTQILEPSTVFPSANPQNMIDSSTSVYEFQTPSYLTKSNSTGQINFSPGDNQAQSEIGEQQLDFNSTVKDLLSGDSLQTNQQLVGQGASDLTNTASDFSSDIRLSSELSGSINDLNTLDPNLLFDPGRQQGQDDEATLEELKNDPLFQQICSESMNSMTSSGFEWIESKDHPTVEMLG
UniProt P22830: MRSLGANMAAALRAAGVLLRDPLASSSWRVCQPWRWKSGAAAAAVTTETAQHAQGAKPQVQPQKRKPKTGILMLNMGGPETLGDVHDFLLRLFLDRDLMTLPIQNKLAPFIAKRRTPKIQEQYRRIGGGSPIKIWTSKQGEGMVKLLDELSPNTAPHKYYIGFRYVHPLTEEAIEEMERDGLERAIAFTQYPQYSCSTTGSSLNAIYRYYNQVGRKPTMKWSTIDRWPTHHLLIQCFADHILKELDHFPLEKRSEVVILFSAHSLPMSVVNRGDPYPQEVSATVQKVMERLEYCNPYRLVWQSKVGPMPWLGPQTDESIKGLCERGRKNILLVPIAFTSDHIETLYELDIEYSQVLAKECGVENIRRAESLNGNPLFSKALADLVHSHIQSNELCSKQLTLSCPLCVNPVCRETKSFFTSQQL
UniProt Q96Q05, whole entry: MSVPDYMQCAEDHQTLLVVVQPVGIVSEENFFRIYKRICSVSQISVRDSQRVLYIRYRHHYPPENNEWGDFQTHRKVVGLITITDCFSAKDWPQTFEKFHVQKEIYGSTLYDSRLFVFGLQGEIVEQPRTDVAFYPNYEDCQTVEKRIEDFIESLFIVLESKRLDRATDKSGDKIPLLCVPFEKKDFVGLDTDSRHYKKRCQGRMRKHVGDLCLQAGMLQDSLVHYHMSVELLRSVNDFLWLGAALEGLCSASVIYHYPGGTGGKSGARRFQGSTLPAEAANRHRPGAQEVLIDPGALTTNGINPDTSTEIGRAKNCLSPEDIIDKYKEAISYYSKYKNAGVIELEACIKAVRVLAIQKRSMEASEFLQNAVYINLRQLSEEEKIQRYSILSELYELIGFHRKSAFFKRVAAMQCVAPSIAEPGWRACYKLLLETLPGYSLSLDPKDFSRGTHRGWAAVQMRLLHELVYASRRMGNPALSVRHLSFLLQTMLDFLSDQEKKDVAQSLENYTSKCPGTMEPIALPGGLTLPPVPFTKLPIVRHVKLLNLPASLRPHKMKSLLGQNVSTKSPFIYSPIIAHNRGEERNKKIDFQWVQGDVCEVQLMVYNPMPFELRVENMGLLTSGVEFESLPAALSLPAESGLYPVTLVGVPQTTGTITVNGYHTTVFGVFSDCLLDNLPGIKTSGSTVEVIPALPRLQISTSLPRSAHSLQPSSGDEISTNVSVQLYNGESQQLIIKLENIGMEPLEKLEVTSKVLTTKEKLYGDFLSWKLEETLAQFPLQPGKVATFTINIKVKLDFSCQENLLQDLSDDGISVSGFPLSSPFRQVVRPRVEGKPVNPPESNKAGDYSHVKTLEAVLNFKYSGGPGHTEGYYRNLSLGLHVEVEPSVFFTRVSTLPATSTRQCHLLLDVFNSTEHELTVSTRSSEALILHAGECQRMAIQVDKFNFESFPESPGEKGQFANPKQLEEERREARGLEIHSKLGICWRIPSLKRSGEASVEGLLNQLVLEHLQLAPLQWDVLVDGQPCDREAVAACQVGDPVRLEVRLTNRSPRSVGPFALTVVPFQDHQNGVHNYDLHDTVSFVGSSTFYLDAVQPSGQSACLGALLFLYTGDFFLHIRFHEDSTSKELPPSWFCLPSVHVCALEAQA
UniProt Q9C037: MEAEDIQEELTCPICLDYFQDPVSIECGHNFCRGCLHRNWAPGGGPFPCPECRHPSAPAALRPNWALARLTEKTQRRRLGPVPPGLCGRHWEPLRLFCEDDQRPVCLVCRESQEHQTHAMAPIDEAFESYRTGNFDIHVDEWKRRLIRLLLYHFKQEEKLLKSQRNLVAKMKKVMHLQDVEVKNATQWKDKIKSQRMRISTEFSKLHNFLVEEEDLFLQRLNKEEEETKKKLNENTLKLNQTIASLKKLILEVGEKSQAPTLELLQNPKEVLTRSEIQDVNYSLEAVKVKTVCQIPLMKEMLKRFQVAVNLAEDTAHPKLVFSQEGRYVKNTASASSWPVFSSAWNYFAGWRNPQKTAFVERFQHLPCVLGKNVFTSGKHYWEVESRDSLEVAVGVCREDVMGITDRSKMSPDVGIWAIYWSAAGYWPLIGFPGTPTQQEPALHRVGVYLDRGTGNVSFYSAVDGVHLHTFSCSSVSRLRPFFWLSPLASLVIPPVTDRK

Row | Target | NP40-soluble protein abundance (concentration: 0.1mM) | NP40-soluble protein abundance (concentration: 0.5mM) | NP40-soluble protein abundance (concentration: 1mM) | NP40-soluble protein abundance (concentration: 2mM) | NP40-soluble protein abundance (concentration: 4mM) | NP40-soluble protein abundance (concentration: 6mM) | NP40-soluble protein abundance (concentration: 8mM) | NP40-soluble protein abundance (concentration: 10mM)
1 | H7C5G1 and related entries (UniProt Q2TAA2) | 1.03 ± 0.013 | 1.01 ± 0.046 | 0.973 ± 0.032 | 0.942 ± 0.027 | 0.92 ± 0.064 | 0.942 ± 0.048 | 0.888 ± 0.079 | 0.907 ± 0.099
2 | J3KNZ9 (UniProt Q9HAH7) | 1.01 ± 0.12 | 0.933 ± 0.095 | 0.978 ± 0.056 | 0.984 ± 0.061 | 0.971 ± 0.051 | 1.01 ± 0.05 | 1.02 ± 0.015 | 1.01 ± 0.061
3 | J3KR72 and related entries (UniProt P49848) | 1.09 ± 0.011 | 1.05 ± 0.043 | 1.13 ± 0.04 | 1.14 ± 0.034 | 1.2 ± 0.084 | 1.19 ± 0.071 | 1.2 ± 0.095 | 1.2 ± 0.11
4 | H0YA93 and related entries (UniProt Q86UW6) | 1.12 ± 0.023 | 1.02 ± 0.11 | 1.15 ± 0.04 | 1.13 ± 0.15 | 1.1 ± 0.045 | 1.2 ± 0.059 | 1.11 ± 0.062 | 1.18 ± 0.1
5 | H7C1J8 and related entries (UniProt P51991) | 1.02 ± 0.076 | 1.17 ± 0.15 | 1.24 ± 0.24 | 1.39 ± 0.31 | 1.43 ± 0.42 | 1.42 ± 0.38 | 1.5 ± 0.44 | 1.48 ± 0.42
6 | H3BPJ9 and related entries (UniProt O96000) | 1.02 ± 0.059 | 1.01 ± 0.045 | 1.16 ± 0.17 | 1.17 ± 0.12 | 1.18 ± 0.14 | 1.15 ± 0.089 | 1.2 ± 0.15 | 1.22 ± 0.19
7 | I3L4N8 and related entries (UniProt P63261) | 0.815 ± 0.28 | 0.853 ± 0.24 | 0.855 ± 0.22 | 0.841 ± 0.23 | 0.901 ± 0.23 | 0.879 ± 0.22 | 0.889 ± 0.25 | 0.946 ± 0.26
8 | H3BP71 and related entries (UniProt O75150) | 0.987 ± 0.037 | 0.983 ± 0.051 | 0.992 ± 0.059 | 0.967 ± 0.066 | 0.983 ± 0.045 | 0.979 ± 0.052 | 1 ± 0.038 | 0.992 ± 0.051
9 | H0YBZ4 and related entries (UniProt Q15390) | 1.06 ± 0.062 | 1.06 ± 0.2 | 1.11 ± 0.043 | 1.09 ± 0.039 | 1.07 ± 0.056 | 1.07 ± 0.08 | 1.08 ± 0.015 | 1.11 ± 0.15
10 | H7C127 and related entries (UniProt Q9H0E9) | 1.01 ± 0.032 | 1.01 ± 0.052 | 1.06 ± 0.07 | 1.04 ± 0.049 | 1.05 ± 0.04 | 1.08 ± 0.049 | 1.08 ± 0.04 | 1.11 ± 0.035
11 | J3KN10 and related entries (UniProt P42356) | 1.135 ± 0.0094 | 1.21 ± 0.22 | 1.14 ± 0.16 | 1.16 ± 0.14 | 1.15 ± 0.32 | 1.1 ± 0.11 | 1.07 ± 0.047 | 1.14 ± 0.3
12 | H0YM11 and related entries (UniProt Q9Y448) | 0.9956 ± 0.0083 | 0.92 ± 0.072 | 1.03 ± 0.055 | 0.987 ± 0.056 | 0.979 ± 0.072 | 1.04 ± 0.069 | 1.05 ± 0.031 | 1.14 ± 0.05
13 | H0YLX2 and related entries (UniProt Q2KHR2) | 1.03 ± 0.064 | 1.03 ± 0.045 | 1.03 ± 0.087 | 1.03 ± 0.063 | 1.04 ± 0.077 | 1.06 ± 0.05 | 1.1 ± 0.052 | 1.05 ± 0.054
14 | H3BM79 and related entries (UniProt Q9H8T0) | 1.11 ± 0.1 | 0.965 ± 0.14 | 1.02 ± 0.043 | 1.08 ± 0.11 | 0.969 ± 0.18 | 1.04 ± 0.11 | 1.06 ± 0.19 | 0.994 ± 0.14
15 | K7EPN2 and related entries (UniProt P22830) | 1.06 ± 0.013 | 1.06 ± 0.034 | 0.972 ± 0.015 | 0.945 ± 0.055 | 0.958 ± 0.039 | 0.939 ± 0.03 | 0.928 ± 0.043 | 0.885 ± 0.05
16 | H3BVG2 and related entries (UniProt Q2M296) | 1.0106 ± 0.00013 | 0.9902 ± 0.0065 | 0.985 ± 0.023 | 1.01 ± 0.017 | 1.03 ± 0.012 | 1.04 ± 0.022 | 1.07 ± 0.066 | 1 ± 0.034
17 | J3QL56 and related entries (UniProt O75880) | 0.914 ± 0.063 | 0.941 ± 0.072 | 0.909 ± 0.073 | 0.918 ± 0.097 | 0.873 ± 0.077 | 0.881 ± 0.076 | 0.884 ± 0.083 | 0.87 ± 0.078
18 | I3L0L6 and related entries (UniProt Q9H6Y7) | 1.04 ± 0.035 | 0.892 ± 0.08 | 1.08 ± 0.07 | 0.986 ± 0.056 | 1.05 ± 0.051 | 0.97 ± 0.027 | 0.999 ± 0.079 | 0.94 ± 0.021
19 | K7ENL9 and related entries (UniProt Q96DM3) | 1.05 ± 0.053 | 1.07 ± 0.046 | 0.982 ± 0.032 | 0.989 ± 0.096 | 0.985 ± 0.036 | 0.968 ± 0.048 | 0.961 ± 0.072 | 0.948 ± 0.072
20 | J3KS22 and related entries (UniProt Q7Z4W1) | 1.04 ± 0.054 | 0.977 ± 0.029 | 0.952 ± 0.06 | 0.949 ± 0.062 | 0.946 ± 0.04 | 0.947 ± 0.041 | 0.93 ± 0.051 | 0.878 ± 0.041
21 | K7EK33 and related entries (UniProt Q96EP5) | 0.908 ± 0.11 | 0.947 ± 0.08 | 0.953 ± 0.095 | 0.912 ± 0.12 | 0.866 ± 0.12 | 0.898 ± 0.095 | 0.924 ± 0.072 | 0.93 ± 0.076
22 | J3QTA2 and related entries (UniProt Q99933) | 1.02 ± 0.018 | 0.978 ± 0.032 | 0.97 ± 0.014 | 0.975 ± 0.044 | 0.951 ± 0.054 | 0.947 ± 0.023 | 0.979 ± 0.015 | 0.926 ± 0.052
23 | H3BMM5 and related entries (UniProt Q96AX1+H3BMM5) | 1.14 ± 0.2 | 1.15 ± 0.22 | 1.01 ± 0.16 | 1.1 ± 0.2 | 1.07 ± 0.16 | 0.998 ± 0.08 | 0.968 ± 0.14 | 0.907 ± 0.14
24 | K7EQV2 and related entries (UniProt O95707) | 1.06 ± 0.04 | 1.11 ± 0.087 | 1.05 ± 0.12 | 1.04 ± 0.074 | 1.06 ± 0.13 | 1.15 ± 0.18 | 1.15 ± 0.11 | 1.13 ± 0.16
25 | H0YBR0 and related entries (UniProt Q96Q05) | 1.08 ± 0.0046 | 1.14 ± 0.05 | 1.01 ± 0.026 | 1.02 ± 0.061 | 1.06 ± 0.11 | 0.996 ± 0.02 | 0.974 ± 0.035 | 0.945 ± 0.051
26 | H7C0Q6 and related entries (UniProt Q9C037) | 1.08 ± 0.076 | 1.037 ± 0.0073 | 1.03 ± 0.068 | 0.998 ± 0.052 | 0.968 ± 0.069 | 0.981 ± 0.063 | 0.979 ± 0.07 | 0.918 ± 0.074

From no. 18 as far as 19, as listed above:
Row | Target | NP40-soluble protein abundance (concentration: 0.1mM) | NP40-soluble protein abundance (concentration: 0.5mM) | NP40-soluble protein abundance (concentration: 1mM) | NP40-soluble protein abundance (concentration: 2mM) | NP40-soluble protein abundance (concentration: 4mM) | NP40-soluble protein abundance (concentration: 6mM) | NP40-soluble protein abundance (concentration: 8mM) | NP40-soluble protein abundance (concentration: 10mM)
18 | I3L0L6 and related entries (UniProt Q9H6Y7) | 1.04 ± 0.035 | 0.892 ± 0.08 | 1.08 ± 0.07 | 0.986 ± 0.056 | 1.05 ± 0.051 | 0.97 ± 0.027 | 0.999 ± 0.079 | 0.94 ± 0.021
19 | K7ENL9 and related entries (UniProt Q96DM3) | 1.05 ± 0.053 | 1.07 ± 0.046 | 0.982 ± 0.032 | 0.989 ± 0.096 | 0.985 ± 0.036 | 0.968 ± 0.048 | 0.961 ± 0.072 | 0.948 ± 0.072
